Laboratory results: PubChem BioAssay AID662 (National Center for Advancing Translational Sciences (NCATS), 2007)
Some of the results follow. These are further read-outs of the screen, such as a control signal, another cell line or another target. No call is given for them. Compounds called inactive in the main read-out are mostly missing here. Potencies come from curve fits of mixed quality, noted in brackets.

assay: Cell signaling CRE-BLA (Fsk stim); details: CHO CRE-bla reporter (cAMP response element driving beta-lactamase), forskolin EC10, beta-lactamase ratio; measured here: 460 nm blue channel
How it was run: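 Beta-lactamase reporter under a cAMP responsive element in CHO cells; compounds tested in titration series against EC10 NKH 477, 3 h at 37 °C. Read-out: CCF4 FRET ratio 460nm/530nm (excitation 405nm) giving %Activity, fitted to AC50.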

| SMILES | AC50 |
| --- | --- |
| COc1ccc(Cc2nc(-c3cccs3)no2)cc1OC | 3.16 µM [rising, full curve] |
| COCc1nc(-c2ccc(-c3ccc(OC)cc3)nc2OC)no1 | 3.98 µM [rising, full curve] |
| COC(=O)[C@@]1(Cc2ccc(F)cc2)[C@H]2c3cc(C(=O)N4CCCC4)n(Cc4cc(C)n(C)n4)c3C[C@H]2CN1C(=O)c1ccccc1 | 12.6 µM [rising, single point] |
| CCCCNC(=O)c1ccc(NC(=O)C2CCCO2)cc1 (configuration not stated) | 0.0398 µM [falling, full curve, poor fit] |
| CC1(C)Cc2c(sc3c2c(=N)n(Cc2ccco2)c(=O)n3CC(=O)Nc2ccccc2)CO1 | 7.94 µM [rising, partial curve, poor fit] |
| O=C(NCc1ccco1)c1ccc2c(=O)n(CCC3=CCCCC3)c(=O)[nH]c2c1 | 25.1 µM [falling, single point] |
| Cn1c(=O)c2c(SCc3ccccc3)nc(-c3ccco3)nc2n(C)c1=O | 12.6 µM [rising, single point] |
| Cc1ccc(C(c2sc3ncnn3c2O)N2CC(C)CC(C)C2)cc1 (configuration not stated) | 7.94 µM [falling, partial curve] |
| CC(C)n1c(NCc2cccs2)nc2ccccc21 | 0.0501 µM [falling, full curve, poor fit] |
| CC(C)(C)C(=O)Oc1cc(N)n(S(=O)(=O)c2ccccc2)n1 | 10 µM [falling, partial curve] |
| O=c1oc2ccccc2n1CCCCCn1c(=O)oc2ccccc21 | 20 µM [rising, single point] |
| CCCn1c(NC(=O)C2COc3ccccc3O2)nc2ccccc21 (configuration not stated) | 3.16 µM [rising, single point] |
| N#Cc1nc(-c2ccc(OCc3ccccc3)cc2)oc1NCCCN1CCOCC1 | 2 µM [rising, partial curve] |
| CC1(c2ccc(Cl)cc2)NC(=O)N(CC(=O)N2CCCC2)C1=O (configuration not stated) | 3.16 µM [falling, single point] |
| Cc1cc(Nc2nc3ccccc3[nH]c2=O)n(-c2ccccc2)n1 | 6.31 µM [rising, partial curve] |
| CCc1c(C)nc2ncnn2c1N1CCCC(C(=O)NCCc2ccc(OC)cc2)C1 (configuration not stated) | 10 µM [rising, partial curve] |
| Nc1ncnc2c([C@@H]3O[C@@H](CO)[C@H](O)[C@@H]3O)nsc12 | 0.501 µM [falling, single point] |
| Cn1c2c(c(=O)n(C)c1=O)CN(Cc1ccc(F)cc1)CN2 | 0.398 µM [falling, partial curve, poor fit] |
| COc1ccccc1CNc1cc(-c2cccc(NS(C)(=O)=O)c2)ncn1 | 10 µM [rising, single point] |
| O=c1[nH]c(C2CCCN(S(=O)(=O)c3ccccc3)C2)nc2c1nnn2Cc1ccccc1F (configuration not stated) | 10 µM [rising, partial curve] |
| Cc1c(C(=O)OCC2CCCO2)[nH]c2c1C(=O)CC(c1ccco1)C2 (configuration not stated) | 10 µM [falling, partial curve] |
| CCN1CCCC1Cn1cnc2c([nH]c3cccc(Cl)c32)c1=O (configuration not stated) | 12.6 µM [falling, partial curve] |
| COC(=O)c1c(-c2ccc(OC)c(OC)c2)csc1N | 10 µM [rising, partial curve] |

| SMILES | AC50 |
| --- | --- |
| Nc1ccccc1N | 12.6 µM [rising, full curve, poor fit] |
| Cc1ccc2[nH]c(-c3ccccc3)cc(=O)c2c1 | 0.631 µM [rising, partial curve] |
| Cc1nc(=O)c(-c2ccccc2)c(C)n1CC1CCCO1 (configuration not stated) | 0.01 µM [falling, full curve] |
| Oc1ccc(Br)cc1CN1CCCCCCC1 | 1 µM [falling, partial curve] |
| COC(=O)C1=C(C)N=c2s/c(=C/c3ccoc3)c(=O)n2C1c1ccccc1 (configuration not stated) | 0.316 µM [rising, partial curve, poor fit] |
| CCCCC(CC)CNC(=O)c1cccs1 (configuration not stated) | 0.126 µM [rising, full curve, poor fit] |
| CCCCC1CCC(c2nc(-c3ccccn3)no2)CC1 (configuration not stated) | 25.1 µM [rising, single point] |
| c1ccn(-c2ncnc3sc4c(c23)CCCC4)c1 | 10 µM [rising, partial curve] |
| COC(=O)[C@@]1(Cc2ccc(OC)cc2)[C@H]2c3cc(C(=O)N(C)C)n(Cc4ccsc4Br)c3C[C@H]2CN1C(=O)c1ccccc1 | 10 µM [rising, partial curve] |
| Cc1cc(N2CCCCC2)n2nc(C)c(-c3ccccc3)c2n1 | 12.6 µM [rising, partial curve] |
| CC(C)CN(Cc1cc2ccccc2[nH]c1=O)C(=O)c1cccnc1 | 5.01 µM [falling, single point] |
| O=C(COC(=O)c1cccs1)Nc1ccccc1 | 0.0316 µM [falling, full curve, poor fit] |
| CCn1c(C)nc2cc(-c3nc4n(n3)Cc3ccccc3-4)ccc21 | 2.51 µM [rising, full curve] |
| CC1=CC(=O)c2ccccc2C1=O | 12.6 µM [falling, partial curve, poor fit] |
| CCCCCOC(=O)c1[nH]c2c(c1C)C(=O)CC(c1ccco1)C2 (configuration not stated) | 0.0316 µM [rising, full curve] |
| COc1cc(C2C(C#N)=C(N)OC3=C2C(=O)CC(C)(C)C3)ccc1OC(=O)N1CCOCC1 (configuration not stated) | 5.01 µM [falling, single point] |
| Fc1ccc(CSc2ncnc3c2oc2ccccc23)cc1 | 1.58 µM [rising, partial curve] |
| Cc1nn(Cc2ccc(Cl)c(Cl)c2)c(C)c1NC(=O)c1cc(-c2ccco2)on1 | 0.00398 µM [falling, full curve, poor fit] |
| CCOC(=O)c1sc2nc3n(c(=O)c2c1C)CCCCC3 | 12.6 µM [rising, partial curve] |
| CN(C)C(CNC(=O)CN1C(=O)NC2(CCc3ccccc32)C1=O)c1ccco1 (configuration not stated) | 0.0501 µM [falling, full curve, poor fit] |
| COCCNC(=O)C(c1cccc(OC)c1)N(Cc1cccs1)C(=O)Cn1nnc2ccccc21 (configuration not stated) | 0.1 µM [falling, full curve] |
| CCOC(=O)c1c(C)n(OCc2ccccc2)c2ccc3c(no[n+]3[O-])c12 | 1.58 µM [rising, full curve] |
| Cc1ccn2c(-c3csc(NCc4ccco4)n3)c(C)nc2c1 | 0.00398 µM [falling, full curve] |

Not a retest: an excerpt of the list.

| SMILES | AC50 |
| --- | --- |
| CC1=CC(=O)c2ccccc2C1=O | 12.6 µM [falling, partial curve, poor fit] |
| CCCCCOC(=O)c1[nH]c2c(c1C)C(=O)CC(c1ccco1)C2 (configuration not stated) | 0.0316 µM [rising, full curve] |
| COc1cc(C2C(C#N)=C(N)OC3=C2C(=O)CC(C)(C)C3)ccc1OC(=O)N1CCOCC1 (configuration not stated) | 5.01 µM [falling, single point] |
| Fc1ccc(CSc2ncnc3c2oc2ccccc23)cc1 | 1.58 µM [rising, partial curve] |

Continuation:

| SMILES | AC50 |
| --- | --- |
| CCOc1cc(CNc2ncc(-c3ccc(OC)cc3)n2C)ccc1O | 5.01 µM [falling, full curve, poor fit] |
| O=C(c1ccncc1)N1CCC2(CCCN(c3cccc(-c4ccccc4)c3)C2)CC1 | 15.8 µM [rising, single point] |
| CC1CN(c2nc3ccccc3nc2C(C#N)C(=O)NCc2ccc3c(c2)OCO3)CC(C)O1 (configuration not stated) | 0.631 µM [rising, full curve] |
| CCOC(=O)c1c(C)[nH]c(C(=O)COC(=O)c2ccncc2)c1C | 5.01 µM [rising, single point] |
| O=C(CSc1nnc(-c2ccncc2)n1-c1ccc(F)cc1)NC(=O)NCc1ccco1 | 0.0251 µM [falling, full curve, poor fit] |
| CCn1c(=O)c2cc(C(=O)NCc3cccs3)sc2c2ccccc21 | 2 µM [rising, full curve] |
| O=C(NCc1cccnc1)C1CCN(C(=O)c2ccc(Cl)cc2Cl)CC1 | 3.16 µM [falling, partial curve, poor fit] |
| O=C(Nc1ccccn1)N1CCOCC1 | 0.158 µM [falling, full curve] |
| CN(C)c1ccc(-c2ccc3ncnc(N(C)Cc4ccco4)c3c2)cc1 | 3.98 µM [rising, full curve] |
| CCOc1ccccc1Nc1nnc(Cc2ccccc2Cl)c(=O)[nH]1 | 12.6 µM [falling, partial curve, poor fit] |
| COc1ccc(CN2C(=O)CN(C3CCCCCC3)C(=O)C2c2ccc(OC)c(OC)c2)cc1 (configuration not stated) | 0.00794 µM [rising, full curve, poor fit] |
| Cc1noc(C)c1Cn1nc(C(=O)O)c2ccccc2c1=O | 20 µM [rising, single point] |
| CCOC(=O)c1ccc(NC(=O)CSc2nc(SC)ns2)cc1 | 0.00316 µM [falling, full curve, poor fit] |
| Cc1nc2cnc(Oc3ccccc3)nc2n(C)c1=O | 25.1 µM [rising, single point] |
| COc1ccc(-c2nc3cnc(N4CCN(C)CC4)nc3n(CCc3ccccc3)c2=O)cc1 | 2.51 µM [rising, full curve] |
| COc1ccc(C)cc1NC(=O)c1ccoc1C | 0.316 µM [rising, partial curve, poor fit] |
| COc1cccc2c1[C@H](CO)N1[C@H](C#N)[C@@H]3C[C@H](C(=O)O)[C@@H]([C@@H]1C2)N3C | 2 µM [falling, single point] |
| CCc1ccc(-c2nn[nH]n2)cc1 | 5.01 µM [falling, single point] |
| CCOC(=O)c1cc(C(C)=O)c(=O)n(C)c1N | 25.1 µM [rising, single point] |
| Cc1nnc(SCc2cnc(-c3ccccc3)o2)[nH]c1=O | 20 µM [rising, single point] |
| COc1ccccc1CCn1c(=O)c(-c2cccc(F)c2)nc2cncnc21 | 12.6 µM [rising, single point] |
